Test results taken from patent US7759526B2 (priority 2000, dated 2010).
Some of these results come from one statement about several compounds together.

Assays:
Assay type in all cases: cell-based
[1] = system: nitric oxide (NO) generation by murine macrophages; experiment: Nitric oxide (NO) generation by murine macrophages
[2] = system: release of reactive oxygen intermediates by monocytic RAW 264.7 cells; experiment: Zymosan-induced release of reactive oxygen intermediates, chemiluminescence; conditions: macrophages
Excerpt: Table of results are attached in following Table C.
(§1) The experimental methods used have been described in Gallily et al. (Eur. J. Pharmacol. 406, R5-R7, 2000), Avron and Gallily (J. Leukocyte Biol. 57, 264-268, 1995) and Gallily et al. (J. Pharmacol. Exp. Ther. 283, 918-924, 1997).

[3] = system: TNFα production by RAW 264.7 mouse monocytic cell line; experiment: TNFα production by RAW 264.7 mouse monocytic cell line; conditions: dose dependent 10 μg-0.001 μg/ml
Protocol: (§2) The inhibition is dose dependent (10 μg-0.001 μg/ml). Tables of results are attached in following Tables A and B.
as §1

[4] = system: TNFα production by Thioglycollate-elicited macrophages (TGMMΦ); experiment: TNFα production by thioglycollate-elicited macrophages; conditions: murine macrophages; dose dependent 10 μg-0.001 μg/ml
Protocol: as §2, §1

| Structure (SMILES) | inhibition of nitric oxide (NO) generation [1] | inhibition of oxygen radicals intermediate (ROI) generation [2] | inhibition of TNFα production [3] | inhibition of TNFα production [4] |
| --- | --- | --- | --- | --- |
| C=C(C)[C@@H]1CCC(CO)=C[C@H]1c1c(O)cc(CCCCC)cc1O [Compound 2a, 7-Hydroxy CBD] | up to 90% |  |  |  |
| C=C(C)[C@@H]1CCC(CO)=C[C@H]1c1c(O)cc(C(C)(C)CCCCCC)cc1O [Compound 2b, 7-Hydroxy CBD-DMH] | up to 90% |  |  |  |
| C=C(C)[C@@H]1CCC(C(=O)O)=C[C@H]1c1c(O)cc(CCCCC)cc1O [Compound 3a, 7-Nor-carboxy CBD] |  | up to 95% | up to 90% | up to 90% |
| C=C(C)[C@@H]1CCC(C(=O)O)=C[C@H]1c1c(O)cc(C(C)(C)CCCCCC)cc1O [Compound 3b, 7-Nor-carboxy CBD DMH] |  | up to 95% | up to 90% | up to 90% |
